Consider one sequence from patent US5580958.

By UniProt entry, the sequences of proteins in these tests, tags left out. Residues count along the entry.
UniProt P00722, 2-1024: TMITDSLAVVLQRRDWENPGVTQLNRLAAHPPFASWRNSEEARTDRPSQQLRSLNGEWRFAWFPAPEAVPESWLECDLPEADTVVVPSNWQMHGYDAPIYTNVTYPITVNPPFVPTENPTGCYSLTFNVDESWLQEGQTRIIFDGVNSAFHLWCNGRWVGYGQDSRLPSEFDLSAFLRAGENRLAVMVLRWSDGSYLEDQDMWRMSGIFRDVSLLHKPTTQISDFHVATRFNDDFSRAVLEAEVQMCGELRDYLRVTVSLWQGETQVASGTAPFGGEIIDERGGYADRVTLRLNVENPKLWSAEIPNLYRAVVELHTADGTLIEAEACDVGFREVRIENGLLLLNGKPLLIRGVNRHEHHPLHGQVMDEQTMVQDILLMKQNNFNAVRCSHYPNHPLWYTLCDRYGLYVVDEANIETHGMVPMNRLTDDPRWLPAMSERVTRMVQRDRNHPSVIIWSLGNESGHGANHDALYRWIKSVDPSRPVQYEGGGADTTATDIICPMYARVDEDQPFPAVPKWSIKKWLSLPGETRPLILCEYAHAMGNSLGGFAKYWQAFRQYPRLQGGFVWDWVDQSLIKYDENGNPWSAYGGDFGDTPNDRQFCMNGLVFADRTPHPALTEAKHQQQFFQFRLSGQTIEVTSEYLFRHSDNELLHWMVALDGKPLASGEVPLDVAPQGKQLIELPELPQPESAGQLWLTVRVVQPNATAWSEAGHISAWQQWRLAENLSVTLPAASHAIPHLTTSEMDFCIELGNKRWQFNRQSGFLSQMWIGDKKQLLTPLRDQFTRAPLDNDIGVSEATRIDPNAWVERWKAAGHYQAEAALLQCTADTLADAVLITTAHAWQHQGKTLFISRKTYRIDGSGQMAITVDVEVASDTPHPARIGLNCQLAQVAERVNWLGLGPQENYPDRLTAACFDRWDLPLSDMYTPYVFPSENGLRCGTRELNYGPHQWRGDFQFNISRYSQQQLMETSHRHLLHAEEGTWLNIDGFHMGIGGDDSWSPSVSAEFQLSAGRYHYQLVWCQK

At least one result comes from cells or an extract, where the contact may be indirect. No signal at the amounts used counts as a negative.

This series addresses beta-galactosidase (lambda-gt11 lysogen) (UniProt P00722). As to the kind of experiment: binding assay. The following applies: Southwestern, lambda-gt11 control lane; protein in an extract; label: 32P.

Turning to “GATCCGTCCCAAGTGAGGAACCAATCAGCATTG (double strand) [MHC class II I-A beta 33-mer (tetramer probe)]”, the binding result is given as “no binding”.
